Measurements from the supplement of paper PMC10849652.
The other results are listed elsewhere or left out.

By UniProt entry, the sequences of proteins in these tests, tags left out. Where a name states a change or a piece, a line headed by the entry shows the natural chain unless it says otherwise.
UniProt Q8WUH2: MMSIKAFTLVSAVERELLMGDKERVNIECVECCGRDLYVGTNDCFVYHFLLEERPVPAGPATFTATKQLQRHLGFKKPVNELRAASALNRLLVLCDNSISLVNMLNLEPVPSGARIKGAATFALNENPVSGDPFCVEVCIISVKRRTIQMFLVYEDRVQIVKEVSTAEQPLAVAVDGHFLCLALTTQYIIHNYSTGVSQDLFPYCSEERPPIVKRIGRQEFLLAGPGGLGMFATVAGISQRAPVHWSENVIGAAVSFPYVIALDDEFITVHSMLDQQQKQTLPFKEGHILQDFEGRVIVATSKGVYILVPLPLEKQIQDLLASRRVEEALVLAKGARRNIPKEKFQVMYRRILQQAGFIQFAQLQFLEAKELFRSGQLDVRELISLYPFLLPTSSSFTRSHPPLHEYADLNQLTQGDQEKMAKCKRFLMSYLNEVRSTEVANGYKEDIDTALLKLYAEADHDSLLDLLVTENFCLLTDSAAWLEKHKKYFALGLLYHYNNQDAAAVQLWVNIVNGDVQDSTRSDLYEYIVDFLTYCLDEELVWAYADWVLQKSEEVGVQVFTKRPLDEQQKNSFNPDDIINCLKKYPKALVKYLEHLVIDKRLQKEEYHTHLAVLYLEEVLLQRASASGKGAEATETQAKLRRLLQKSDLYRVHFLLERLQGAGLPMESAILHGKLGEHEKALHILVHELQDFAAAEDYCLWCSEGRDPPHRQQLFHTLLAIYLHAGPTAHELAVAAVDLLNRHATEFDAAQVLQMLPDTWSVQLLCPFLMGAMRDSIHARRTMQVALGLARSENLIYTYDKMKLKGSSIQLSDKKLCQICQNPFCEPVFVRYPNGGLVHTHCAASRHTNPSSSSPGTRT
UniProt Q6NUS6: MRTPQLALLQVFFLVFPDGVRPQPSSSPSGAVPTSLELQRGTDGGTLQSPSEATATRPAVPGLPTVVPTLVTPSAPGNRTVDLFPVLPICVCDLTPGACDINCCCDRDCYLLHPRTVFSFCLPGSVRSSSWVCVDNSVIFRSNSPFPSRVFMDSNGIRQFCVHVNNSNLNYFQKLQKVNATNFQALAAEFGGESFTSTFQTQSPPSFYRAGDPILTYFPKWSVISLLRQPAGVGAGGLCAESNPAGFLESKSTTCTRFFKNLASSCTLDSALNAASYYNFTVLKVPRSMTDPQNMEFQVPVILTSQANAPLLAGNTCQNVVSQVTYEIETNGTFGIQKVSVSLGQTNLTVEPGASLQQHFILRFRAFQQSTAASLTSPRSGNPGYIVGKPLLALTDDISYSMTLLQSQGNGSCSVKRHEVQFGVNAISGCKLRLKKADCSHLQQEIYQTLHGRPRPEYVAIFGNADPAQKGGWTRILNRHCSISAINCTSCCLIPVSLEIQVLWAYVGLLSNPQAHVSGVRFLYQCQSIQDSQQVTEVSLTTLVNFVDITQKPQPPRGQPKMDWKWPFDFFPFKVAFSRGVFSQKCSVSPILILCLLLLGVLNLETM
UniProt P02786, whole entry, looked up: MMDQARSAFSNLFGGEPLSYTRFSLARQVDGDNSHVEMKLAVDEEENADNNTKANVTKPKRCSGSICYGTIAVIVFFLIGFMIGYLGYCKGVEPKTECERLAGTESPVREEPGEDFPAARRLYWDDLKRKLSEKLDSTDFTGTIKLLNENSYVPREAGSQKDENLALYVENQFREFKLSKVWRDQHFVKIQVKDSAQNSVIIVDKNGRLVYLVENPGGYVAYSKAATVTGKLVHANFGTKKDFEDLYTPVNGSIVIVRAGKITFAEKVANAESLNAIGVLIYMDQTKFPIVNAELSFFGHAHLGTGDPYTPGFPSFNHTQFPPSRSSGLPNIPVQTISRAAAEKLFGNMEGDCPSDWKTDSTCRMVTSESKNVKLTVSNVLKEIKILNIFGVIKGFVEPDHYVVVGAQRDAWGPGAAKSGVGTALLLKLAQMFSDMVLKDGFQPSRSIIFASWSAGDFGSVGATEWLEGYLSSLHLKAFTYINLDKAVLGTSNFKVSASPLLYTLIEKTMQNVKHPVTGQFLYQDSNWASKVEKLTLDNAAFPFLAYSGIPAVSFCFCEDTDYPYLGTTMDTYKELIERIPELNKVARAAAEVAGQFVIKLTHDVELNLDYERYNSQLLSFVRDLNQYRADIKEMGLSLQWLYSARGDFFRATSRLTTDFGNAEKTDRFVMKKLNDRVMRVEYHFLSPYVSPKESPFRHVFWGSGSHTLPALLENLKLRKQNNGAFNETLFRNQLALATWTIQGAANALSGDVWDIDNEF
UniProt Q15582: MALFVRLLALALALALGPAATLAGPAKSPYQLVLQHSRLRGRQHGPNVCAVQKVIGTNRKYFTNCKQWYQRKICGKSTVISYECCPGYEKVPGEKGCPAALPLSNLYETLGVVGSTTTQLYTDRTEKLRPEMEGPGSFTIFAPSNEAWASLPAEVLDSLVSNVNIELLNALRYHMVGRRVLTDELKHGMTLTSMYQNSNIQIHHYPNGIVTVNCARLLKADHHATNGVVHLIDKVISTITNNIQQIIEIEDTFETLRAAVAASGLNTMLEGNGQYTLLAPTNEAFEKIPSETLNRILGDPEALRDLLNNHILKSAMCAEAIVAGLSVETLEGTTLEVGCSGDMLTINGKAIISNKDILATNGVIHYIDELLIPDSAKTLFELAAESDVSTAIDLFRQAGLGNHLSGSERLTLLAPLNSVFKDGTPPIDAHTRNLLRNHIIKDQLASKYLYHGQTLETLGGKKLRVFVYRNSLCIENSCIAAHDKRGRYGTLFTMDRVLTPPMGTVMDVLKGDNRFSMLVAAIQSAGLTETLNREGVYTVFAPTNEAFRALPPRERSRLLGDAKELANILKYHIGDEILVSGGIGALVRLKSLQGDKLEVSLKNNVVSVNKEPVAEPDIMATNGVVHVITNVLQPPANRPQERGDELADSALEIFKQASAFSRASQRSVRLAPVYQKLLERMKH

Experiments:
Assay in all cases: log2 fold change, soluble protein after heating vs DMSO (PISA); higher = thermal stabilisation; K562 cells, 10 uM, 30 min; active = over 0.2 and 3.5 SD of the protein, either way, in both replicates (recomputed)
[1] = compound: CC1=C(C=C(C=C1)NC(=O)C2=CC(=CC=C2)C(C)(C)C#N)NC3=CC4=C(C=C3)N=CN(C4=O)C
How it was run: (§1)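 Thermal stability values are relative to control samples and come from duplicates. They are expressed as log2 fold changes. For measurement, K562 cells (2×10^6 cells/mL) received 10 μM compound for 30 min, and aliquots were heated for 3 min over 48°C-58°C, pooled, and extracted at 4°C in PBS with 0.5% NP-40. Soluble protein, the supernatant after 21,000xg for 90 min, was quantified by TMTpro 16plex LC-MS/MS with equalised channel sums.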

[2] = compound: CC1=C(C=C(C=C1)NC(=O)C2=CC(=CC=C2)N(C)C)NC(=O)C3=CC=C(C=C3)O
How it was run: as §1

[3] = compound: CC1=CC=C(C=C1)SC2=C3C=C(SC3=CN=C2)C(=O)N
How it was run: as §1

[4] = compound: CC1=NC(=CC=C1)C2=C(N=C(N2)C(C)(C)C)C3=CC4=NC=CN=C4C=C3
How it was run: as §1

Nexturastat A = compound: CCCCN(Cc1ccc(C(=O)NO)cc1)C(=O)Nc1ccccc1 [Nexturastat A]
How it was run: as §1

vemurafenib = compound: CCCS(=O)(=O)Nc1ccc(F)c(C(=O)c2c[nH]c3ncc(-c4ccc(Cl)cc4)cc23)c1F [vemurafenib]
How it was run: as §1

[5] = compound: CCCS(=O)(=O)Nc1ccc(F)c(C(=O)c2c[nH]c3ncc(Cl)cc23)c1F
How it was run: as §1

[6] = compound: CCCc1cc(C)[nH]c(=O)c1CNC(=O)c1cc(-c2ccnc(N3CCN(C)CC3)c2)cc2c1cnn2C(C)C
How it was run: as §1

givinostat = compound: CCN(CC)Cc1ccc2cc(COC(=O)Nc3ccc(C(=O)NO)cc3)ccc2c1 [givinostat]
How it was run: as §1

barasertib = compound: CCN(CCCOc1ccc2c(Nc3cc(CC(=O)Nc4cccc(F)c4)[nH]n3)ncnc2c1)CCOP(=O)(O)O [barasertib]
How it was run: as §1

[7] = compound: CC[C@@H]1C(=O)N(C)c2cnc(Nc3ccc(C(=O)NC4CCN(C)CC4)cc3OC)nc2N1C1CCCC1
How it was run: as §1

volasertib = compound: CC[C@@H]1C(=O)N(C)c2cnc(Nc3ccc(C(=O)N[C@H]4CC[C@H](N5CCN(CC6CC6)CC5)CC4)cc3OC)nc2N1C(C)C [volasertib]
How it was run: as §1

[8] = compound: CC[C@H](C)N1C=C(C2=C(C=C(C=C21)C3=CN=C(C=C3)N4CCNCC4)C(=O)NCC5=C(C=C(NC5=O)C)C)C
How it was run: as §1

epoxomicin = compound: CC[C@H](C)[C@@H](C(=O)N[C@@H]([C@@H](C)O)C(=O)N[C@@H](CC(C)C)C(=O)[C@]1(CO1)C)NC(=O)[C@H]([C@@H](C)CC)N(C)C(=O)C [epoxomicin]
How it was run: as §1

[9] = compound: CCn1cc(-c2ccnc3[nH]c(-c4cccc(CN(C)C)c4)cc23)c(-c2ccc(NC(=O)N(C)C)cc2)n1
How it was run: as §1

[10] = compound: CN(C)CC(=O)Nc1ccc2[nH]c(=O)c3ccccc3c2c1
How it was run: as §1

[11] = compound: CN1C2=C(C3=C1C(=O)N(N=C3)CC4=CC(=CC=C4)N)SC(=C2)S(=O)C
How it was run: as §1

[12] = compound: CN1CCC(CNc2ccc3ncc(-c4cccc(OC(F)(F)F)c4)n3n2)CC1
How it was run: as §1

rosiglitazone = compound: CN(CCOC1=CC=C(C=C1)C[C@H]2C(=O)NC(=O)S2)C3=CC=CC=N3 (racemic) [rosiglitazone]
How it was run: as §1

Row | Target | log2 fold change [1] | log2 fold change [2] | log2 fold change [3] | log2 fold change [4] | log2 fold change (Nexturastat A) | log2 fold change (vemurafenib) | log2 fold change [5] | log2 fold change [6] | log2 fold change (givinostat) | log2 fold change (barasertib) | log2 fold change [7] | log2 fold change (volasertib) | log2 fold change [8] | log2 fold change (epoxomicin) | log2 fold change [9] | log2 fold change [10] | log2 fold change [11] | log2 fold change [12] | log2 fold change (rosiglitazone)
1 | TGFBRAP1 (UniProt Q8WUH2) | inactive: -0.058 | inactive: -0.001 | inactive: 0.138 | inactive: 0.061 | inactive: 0.107 | inactive: -0.055 | inactive: -0.003 | inactive: 0.038 | inactive: 0.092 | inactive: 0.01 | inactive: -0.098 | inactive: -0.253 | inactive: 0.128 | inactive: 0.048 | inactive: -0.059 | inactive: 0.11 | inactive: 0.195 | inactive: 0.011 | 
2 | TCTN3 (UniProt Q6NUS6) | inactive: -0.054 |  | inactive: -0.029 | inactive: 0.056 | inactive: 0.028 |  | inactive: 0.028 |  |  | inactive: -0.224 |  | inactive: -0.121 | inactive: -0.075 | inactive: 0.012 |  |  |  |  | inactive: 0
3 | TFRC (UniProt P02786) | inactive: -0.008 | inactive: 0.023 | inactive: 0.02 | inactive: 0.026 | inactive: -0.067 | inactive: -0.002 | inactive: -0.007 | inactive: -0.026 | inactive: 0.004 | inactive: -0.015 | active: -0.589 | active: -0.417 | inactive: -0.035 | inactive: -0.009 | inactive: -0.005 | inactive: 0.004 | inactive: -0.033 | active: -0.289 | 
4 | TGFBI (UniProt Q15582) | inactive: -0.167 | inactive: 0.101 | inactive: 0.062 | inactive: 0.091 | inactive: -0.082 | inactive: 0.157 | inactive: -0.044 | inactive: -0.255 | inactive: -0.08 | inactive: 0.068 | inactive: -0.089 | inactive: -0.211 | inactive: -0.044 | inactive: -0.33 | inactive: 0.068 | inactive: -0.128 | inactive: 0.171 | inactive: -0.142 | 
